Primary screen of a compound library

Data taken from ChEMBL document CHEMBL3988442, “University of Dundee, Small-Polar-MMV Screening Library” (2021).

Mtb growth Cornell: 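Whole-cell assay for inhibitors of Mycobacterium tuberculosis growth, labelled Cornell in the record; the read-out is not stated. The concentration is filed as 10 mM, unlikely as a test dose, so the dose is not known. Higher means stronger inhibition (inferred from two other growth screens of the library). Of about 53,000 compounds tested this way, about 900 (1.7%) reached 50% or more in at least one test.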
Mtb heat-shock: 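Assay on Mycobacterium tuberculosis, filed only as a heat shock assay from Cornell; the read-out is not stated. The concentration is filed as 10 mM, unlikely as a test dose, so the dose is not known. The record gives no direction; compounds that gave an IC50 in retests scored well above the rest, so higher reads as stronger inhibition. About 69,000 compounds were tested under these conditions; 1.4% (about 930) showed 50% or more at least once.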

The filed quantity is “Percent Effect” (%). The controls that fix the scale are not given in the record; negative values are as filed. The compounds are a random part of those screened. A dash means the value is not listed here; it may have been measured.

| structure | Mtb growth Cornell | Mtb heat-shock |
|---|---|---|
| `COC[C@]1(O)CCN(C2CCN(c3ccc(F)c(F)c3)CC2)CC1(C)C` | -3.185 | -9.223 |
| `CCc1ccc(O)c(C(=O)N2CCCN(CC(=O)N(CC)CC)CC2)c1` | -4.72 | 10.44 |
| `CC(C)c1nc(CN(C)C(=O)CCNC(=O)c2ccccc2F)no1` | - | -15.15 |
| `O=C(C1CCCO1)N1CCC(c2nc(-c3ccccc3)n[nH]2)CC1` (centres undefined) | -11.93 | 0.6377 |
| `O=C(CCc1nnc2ccccn2c1=O)NCc1ccc2c(c1)OCO2` | -23.47 | 1.202 |
| `[H][C@]12CN(C(=O)c3ccc4c(c3)OCO4)CCN1C(=O)N(CCOC)C2` | - | 6.917 |
| `N#Cc1cn[nH]c1NCc1cc(Br)ccc1O` | -2.668 | 3.306 |
| `CN(C)S(=O)(=O)N1CCN(c2ccnc(N3CCCCC3)n2)CC1` | 38.93 | -3.243 |
| `c1cncc(COCC2CNCc3nccn3C2)c1` (centres undefined) | 5.55 | -17.66 |
| `O=C(c1c[nH]c(=O)[nH]c1=O)N1CCCC(c2nccn2CC2CCC2)C1` (centres undefined) | 4.47 | 11.92 |
| `Cc1cccc(CN2CCc3ncnc(N4CCOCC4)c3CC2)n1.O=C(O)C(F)(F)F` | 28.98 | -3.783 |
| `O=C(c1cnc(-c2ccccc2)s1)N1CCOC2(CCCC2)C1` | - | -2.813 |
| `Cc1cc(Cc2ccc(S(=O)(=O)N3CCOCC3)cc2)c(=O)[nH]n1` | 17.33 | 3.399 |
| `O=C(Cc1cccs1)N1CCCCC1c1ccn2ccnc2n1` (centres undefined) | -41.37 | -15.08 |
| `COCCCn1ccc(NCc2cnc(C(C)(C)C)s2)n1` | -26.74 | -8.398 |
| `CCCc1cc(C(=O)N(C)Cc2cccc3cnccc23)n(C)n1` | 7.819 | -43.85 |
| `CC(=O)N1CCCC(C(=O)N2Cc3nc(C)n(C)c(=O)c3C2)C1` (centres undefined) | -38.29 | 23.44 |
| `NCc1ccc(Oc2cccc(Cl)c2Cl)nc1` | -9.22 | -33.68 |
| `Cc1cc(CC(=O)N(CC2CN(C)CCO2)c2nccs2)no1` (centres undefined) | -6.803 | -3.364 |
| `CNS(=O)(=O)Cc1ccc(CNC(=O)c2ccccn2)cc1` | -44.12 | 1.501 |
| `CC(=O)NC1CCN(c2ccnc(C3CCNCC3)c2)CC1.O=C(O)C(F)(F)F` | 14.54 | -2.639 |
| `COc1nc2ccn(CCc3scnc3C)c(=O)c2cc1C#N` | 8.561 | -23.15 |
| `N#CC1(NC(=O)c2c(F)ccc(OC(F)F)c2F)CCOCC1` | -11.61 | -2.145 |
| `CC(C)(C)CCNc1nccc(-c2c[nH][nH]c2=O)n1` | -36.17 | -14.11 |
| `CCn1c(SCC(N)=O)nnc1C(C)NC(=O)c1ccc(Cl)cc1` (centres undefined) | - | -5.635 |
| `NC(=O)COc1cccc(Cn2cc(Br)cn2)c1` | 12.83 | 11.39 |
| `O=C(O)C(F)(F)F.c1coc(CN2CCCn3c(nnc3Cn3cccn3)C2)c1` | - | -27.42 |
| `CCc1csc(C2CCCN(C(=O)c3cc(Cl)c[nH]3)C2)n1` (centres undefined) | - | -4.821 |
| `CCN(CC)CC[C@H]1CN(C(=O)C2CCC2)CC[C@H]1CC(=O)O` | - | 4.903 |
| `CC(C)CN1CC(C(=O)N(C)CCc2cn[nH]c2)CC1=O` (centres undefined) | 28.55 | -10.16 |
| `O=C(CCc1nc2cccnc2[nH]1)Nc1ccc2c(c1)NC(=O)CO2` | -7.908 | 5.979 |
| `Cc1nc(C(=O)N2CCc3[nH]nc(Nc4ccccc4)c3C2)co1` | 2.884 | -0.342 |
| `[H][C@@]12CCN(CC3CC3)C(=O)[C@@]1([H])CN(c1ncc(C)cn1)C2` | 12.67 | 0.8898 |
| `CC(C)CCn1cc(C(C(=O)O)N2CCCN(C3CCCC3)CC2)cn1` (centres undefined) | - | 1.139 |
| `CCNc1cc2c(nn1)CCN(C(=O)c1cc(C)n(C3CC3)c1C)C2` | 9.72 | -2.973 |
| `Cc1ccc(C(=O)N2CC(=O)N(Cc3ccco3)CC(O)C2)cc1` (centres undefined) | 7.151 | 34.47 |
| `CC(C)C1SCC(=O)Nc2c1c(O)nn2C1CCCCC1` (centres undefined) | 13.37 | -2.34 |
| `Cc1cnn(CCNCc2nc(-c3ccccc3Cl)no2)c1` | - | -7.365 |
| `C[C@]1(O)CCN(Cc2nccs2)C[C@@H]1Oc1cccc(F)c1` | - | -11.37 |
| `Cc1nn(C)c2c(N3CCC(C)CC3)nc(C3CC3)nc12` | 23.01 | -2.377 |
| `O=C(COc1cccc2c1CCC2=O)NCCc1cccs1` | -15.52 | -31.35 |
| `O=C(CCCc1cn[nH]c1)N1C[C@@H](CN2CCCCCC2)[C@@H](CO)C1` | - | -25.09 |
| `[H][C@@]12COC[C@@H](Cc3nc(C)no3)[C@]1([H])CN(C(=O)C1=CCCC1)C2` | 13.5 | -4.412 |
| `COc1ccc(Cl)cc1CCNC(=O)NCc1ncnn1C` | 19.31 | 4.941 |
| `CC(=O)N(Cc1ncc(C)o1)C1CCN(Cc2ccc(F)c(F)c2)C1` (centres undefined) | -11.32 | -10.7 |
| `CCC(CC)NC(=O)c1cncc(Br)c1` | 12 | 23.98 |

The last 4 entries again:

| structure | Mtb growth Cornell | Mtb heat-shock |
|---|---|---|
| `[H][C@@]12COC[C@@H](Cc3nc(C)no3)[C@]1([H])CN(C(=O)C1=CCCC1)C2` | 13.5 | -4.412 |
| `COc1ccc(Cl)cc1CCNC(=O)NCc1ncnn1C` | 19.31 | 4.941 |
| `CC(=O)N(Cc1ncc(C)o1)C1CCN(Cc2ccc(F)c(F)c2)C1` (centres undefined) | -11.32 | -10.7 |
| `CCC(CC)NC(=O)c1cncc(Br)c1` | 12 | 23.98 |